# Measurements published in doi:10.1101/2021.11.24.469908.
# Protein sequences, listed by entry. Tags and fused reporters are not part of them.
# UniProt P32121: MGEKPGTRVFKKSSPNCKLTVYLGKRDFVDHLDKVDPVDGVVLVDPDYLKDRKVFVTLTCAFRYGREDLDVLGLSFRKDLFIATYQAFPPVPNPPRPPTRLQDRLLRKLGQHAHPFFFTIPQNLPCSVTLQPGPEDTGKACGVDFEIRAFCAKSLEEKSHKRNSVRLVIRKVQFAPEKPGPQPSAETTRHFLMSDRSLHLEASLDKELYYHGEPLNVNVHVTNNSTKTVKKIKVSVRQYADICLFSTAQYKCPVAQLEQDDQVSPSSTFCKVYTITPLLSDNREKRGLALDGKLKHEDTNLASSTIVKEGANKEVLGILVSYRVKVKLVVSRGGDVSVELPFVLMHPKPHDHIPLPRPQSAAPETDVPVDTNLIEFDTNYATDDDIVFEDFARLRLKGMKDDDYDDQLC
# No constants are given. Whether binding was seen depends on the method and setting. Binding seen in cells or lysates may run through a third protein. Some binding calls cover weakened binding; strength is not graded here.
# T1: SNAP-GLP-1R (INS-1 832/3 stable line) (human), P43220
# T1 chain: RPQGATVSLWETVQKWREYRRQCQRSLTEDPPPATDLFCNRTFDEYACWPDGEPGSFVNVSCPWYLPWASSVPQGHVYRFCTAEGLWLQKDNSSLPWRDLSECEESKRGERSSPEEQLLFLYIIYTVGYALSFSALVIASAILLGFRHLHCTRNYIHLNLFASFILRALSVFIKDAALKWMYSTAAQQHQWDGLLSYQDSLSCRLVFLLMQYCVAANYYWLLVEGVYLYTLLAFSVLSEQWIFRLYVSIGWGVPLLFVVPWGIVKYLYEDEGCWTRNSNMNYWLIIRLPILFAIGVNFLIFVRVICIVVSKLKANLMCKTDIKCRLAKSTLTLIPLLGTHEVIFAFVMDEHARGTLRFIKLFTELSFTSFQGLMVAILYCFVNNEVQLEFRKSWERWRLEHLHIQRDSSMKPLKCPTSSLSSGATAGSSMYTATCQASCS
# B1: SNAP-GLP-1R (INS-1 832/3 stable line), P43220 24-463 (receptor)
# chain: T1 chain
# What was measured:
# [1] = molecular target: SNAPf-GLP-1R-SmBiT (human) (UniProt P43220); experiment: split reporter
# [2] = molecular target: T1, SNAP-GLP-1R (INS-1 832/3 stable line) …; experiment: FRET or BRET; details: remark: other sources report otherwise
Molecule,binding [1],binding [2]
LgBiT-β-arrestin-2 (from UniProt P32121 1-409),binds,–
B1,–,binds
